1 substance from doi:10.1101/2019.12.11.873422 can be followed below.

Chains of the proteins cited; added tags and fusions are not shown.
UniProt Q15554: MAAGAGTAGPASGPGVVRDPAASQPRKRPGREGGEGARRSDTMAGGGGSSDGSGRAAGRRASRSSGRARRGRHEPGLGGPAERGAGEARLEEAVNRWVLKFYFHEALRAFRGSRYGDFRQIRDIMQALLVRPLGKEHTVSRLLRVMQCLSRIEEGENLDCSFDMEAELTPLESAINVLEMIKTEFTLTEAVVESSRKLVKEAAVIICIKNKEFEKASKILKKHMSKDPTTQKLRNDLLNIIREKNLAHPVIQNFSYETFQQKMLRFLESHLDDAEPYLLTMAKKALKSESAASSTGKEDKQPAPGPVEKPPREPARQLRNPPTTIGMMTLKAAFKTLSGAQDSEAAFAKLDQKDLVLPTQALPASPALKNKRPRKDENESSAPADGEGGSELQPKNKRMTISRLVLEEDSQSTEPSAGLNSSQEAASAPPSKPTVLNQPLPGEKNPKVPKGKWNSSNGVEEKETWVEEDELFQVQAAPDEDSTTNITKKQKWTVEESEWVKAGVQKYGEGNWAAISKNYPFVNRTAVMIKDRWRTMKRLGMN
UniProt P13010: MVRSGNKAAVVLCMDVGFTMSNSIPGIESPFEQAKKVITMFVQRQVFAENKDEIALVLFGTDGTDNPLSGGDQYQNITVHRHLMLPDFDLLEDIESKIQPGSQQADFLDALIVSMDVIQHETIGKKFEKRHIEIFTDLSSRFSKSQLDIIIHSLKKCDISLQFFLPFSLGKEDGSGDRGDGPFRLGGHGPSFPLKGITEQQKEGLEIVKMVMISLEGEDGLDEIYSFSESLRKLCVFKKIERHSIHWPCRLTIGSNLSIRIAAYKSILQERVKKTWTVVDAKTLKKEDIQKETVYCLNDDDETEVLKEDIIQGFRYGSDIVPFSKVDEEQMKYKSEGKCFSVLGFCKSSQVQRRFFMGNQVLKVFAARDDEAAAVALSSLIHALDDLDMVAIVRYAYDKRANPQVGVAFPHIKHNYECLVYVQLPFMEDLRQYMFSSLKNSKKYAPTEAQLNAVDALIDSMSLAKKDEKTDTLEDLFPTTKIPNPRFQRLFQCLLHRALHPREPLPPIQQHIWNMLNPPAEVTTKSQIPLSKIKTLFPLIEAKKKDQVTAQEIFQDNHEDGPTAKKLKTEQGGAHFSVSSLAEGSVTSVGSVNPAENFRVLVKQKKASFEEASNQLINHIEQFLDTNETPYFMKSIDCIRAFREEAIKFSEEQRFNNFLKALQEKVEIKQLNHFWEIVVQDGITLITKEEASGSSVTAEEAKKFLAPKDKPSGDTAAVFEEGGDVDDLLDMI

In this test the target is endogenous TRF2 (human (endogenous in Flp-In T-REx 293)) (UniProt Q15554). Description: co-IP.

No constants are given. Whether binding was seen depends on the method and setting. Binding seen in cells or lysates may run through a third protein. Some binding calls cover weakened binding; strength is not graded here.

Regarding Myc-Ku80 WT (from UniProt P13010 1-732), the binding entry is on record as “binds”.
